Assay results from PubChem BioAssay AID1347076 (National Center for Advancing Translational Sciences (NCATS), 2019).
The whole screen tested about 400,000 compounds, of which about 13,000 (3.2%) were called active. A call without a number means that no potency is given here. Inconclusive means that the source gave no clear call. Such entries were picked first, then a sample of the others. Calls follow the shape of the dose curve; as a rule, active = well fitted cell-killing curve with a large enough effect; inconclusive = small, poorly fitted or top-dose-only effect, or effect the other way; inactive = flat fitted curve, though single readings scatter. Potencies of inconclusive entries are doubtful fits and often do not repeat.

assay: qHTS assay for MDR1-selective chemotherapeutics: Primary screen using the drug-selected MDR subline cells KB-V1; details: KB-V1 MDR cells viability, CellTiter-Glo, 72 h; series mostly up to 46.1 µM; also: nearly all actives have a fitted effect of over 60% in size
Method in brief: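 KB-V1 MDR subline cells in DMEM (phenol-red free, 10% FBS) exposed to compounds in qHTS concentration series for 72 h at 37 degrees C. Viability read by CellTiter-Glo luminescence; concentration-effect curves fitted after normalization and correction.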
Potency is read from the fitted curve at half-maximal effect.

Row | Compound | Potency
1 | Cc1ccc(-n2nc(C)c3c(C)c(CCC(=O)NCc4ccccc4Cl)c(C)nc32)cc1C | inactive
2 | COc1ccccc1CC(=O)NNC(=O)c1cccs1 | inconclusive: 5.17 µM [rising, full curve]
3 | CCOc1cccc2c1N[C@@H](c1ccc(C(=O)O)cc1)[C@H]1CC=C[C@@H]21 | inactive
4 | Cc1cc(F)ccc1S(=O)(=O)Nc1ccccc1C(=O)Nc1ncn[nH]1 | inconclusive: 32.6 µM [cytotoxic, single point]
5 | CCOC(=O)c1sc2nc(C)nc(NCc3ccc(F)cc3)c2c1C | inactive
6 | COc1ccc(N2CCN(C(c3ccccc3)c3nnnn3C(C)C)CC2)cc1 (stereo not given) | inactive
7 | Cc1c(C(=O)Nc2ccc3nc(N4CCOCC4)sc3c2)oc2ccccc12 | inconclusive: 29.1 µM [cytotoxic, single point]
8 | CS(=O)(=O)Nc1ccc(C(=O)NCCSCc2ccccc2)cc1 | inactive
9 | CCN(CC)C(=O)Cn1c(=O)cc(C)c2c(C)nn(-c3ccc(C)cc3)c21 | inactive
10 | CN(C)S(=O)(=O)c1ccc(Cl)c(NC(=O)CSc2nc3ccccc3c(=O)n2CCCN2CCOCC2)c1 | inconclusive: 9.2 µM [cytotoxic, partial curve]
11 | O=C(NC1CCCC1)C(c1cccnc1)N(C(=O)c1csnn1)C1CCCC1 (stereo not given) | inconclusive: 16.4 µM [cytotoxic, partial curve, poor fit]
12 | C[C@@H]1CNC(=O)c2c(C(=O)N[C@H](C)c3ccccc3)ncn21 | inconclusive: 0.326 µM [cytotoxic, full curve, poor fit]
13 | CCOC(=O)C1CCN(C2=NC(=O)/C(=C/c3ccc(Cl)cc3)S2)CC1 | inactive
14 | O=C(C[n+]1cc(-c2ccccc2)n2c1CCC2)c1cccs1 | inconclusive: 8.2 µM [rising, partial curve, poor fit]
15 | O=C(/C=C/c1ccc(S(=O)(=O)NCc2ccco2)cc1)NCc1ccccc1Cl | inconclusive: 7.31 µM [cytotoxic, partial curve]
16 | CCOC(=O)c1ccc(N=c2sc(C(=O)OC)cc(=O)n2CCCN2CCOCC2)cc1 | inactive
17 | CN1CCN(S(=O)(=O)c2cccc(C(=O)N3CCc4ccccc43)c2)CC1 | inactive
18 | CCCCC(=O)Nc1ccc(S(=O)(=O)N2CCCCC2c2cccnc2)cc1 (stereo not given) | inactive
19 | Cc1ccc(N=C2NC(=O)/C(=C/c3cccn3C)S2)cc1 | inconclusive: 13 µM [cytotoxic, partial curve, poor fit]
20 | Cc1c(S(=O)(=O)c2ccccn2)c(N)n(Cc2ccccc2Cl)c1C | inconclusive: 29.1 µM [cytotoxic, single point]
